# Primary screen of a compound library

The chains behind the UniProt entries cited, without tags or fusion partners. Residues count along the entry.
UniProt P9WNZ1, whole entry: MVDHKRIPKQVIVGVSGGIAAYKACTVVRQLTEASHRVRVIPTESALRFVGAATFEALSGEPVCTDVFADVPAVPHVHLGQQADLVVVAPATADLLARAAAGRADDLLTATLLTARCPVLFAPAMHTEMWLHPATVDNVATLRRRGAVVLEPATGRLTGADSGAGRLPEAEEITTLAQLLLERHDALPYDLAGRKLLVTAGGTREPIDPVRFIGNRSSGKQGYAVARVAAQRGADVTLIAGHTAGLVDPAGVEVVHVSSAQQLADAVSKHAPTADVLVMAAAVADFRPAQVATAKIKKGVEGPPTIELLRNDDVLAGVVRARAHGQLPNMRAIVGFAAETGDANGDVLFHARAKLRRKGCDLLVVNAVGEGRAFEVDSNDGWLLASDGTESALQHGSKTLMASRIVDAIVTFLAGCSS
UniProt P9WFT3, whole entry: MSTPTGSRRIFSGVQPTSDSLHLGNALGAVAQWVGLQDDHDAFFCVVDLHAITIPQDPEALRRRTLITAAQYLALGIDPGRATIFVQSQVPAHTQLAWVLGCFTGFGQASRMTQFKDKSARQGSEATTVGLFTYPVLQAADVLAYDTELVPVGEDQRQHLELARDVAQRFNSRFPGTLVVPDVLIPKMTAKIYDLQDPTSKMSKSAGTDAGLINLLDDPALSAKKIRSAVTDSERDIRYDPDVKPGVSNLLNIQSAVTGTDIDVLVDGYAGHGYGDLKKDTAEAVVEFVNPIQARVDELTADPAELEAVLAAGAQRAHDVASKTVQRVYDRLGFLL
UniProt A4I591, 1-473: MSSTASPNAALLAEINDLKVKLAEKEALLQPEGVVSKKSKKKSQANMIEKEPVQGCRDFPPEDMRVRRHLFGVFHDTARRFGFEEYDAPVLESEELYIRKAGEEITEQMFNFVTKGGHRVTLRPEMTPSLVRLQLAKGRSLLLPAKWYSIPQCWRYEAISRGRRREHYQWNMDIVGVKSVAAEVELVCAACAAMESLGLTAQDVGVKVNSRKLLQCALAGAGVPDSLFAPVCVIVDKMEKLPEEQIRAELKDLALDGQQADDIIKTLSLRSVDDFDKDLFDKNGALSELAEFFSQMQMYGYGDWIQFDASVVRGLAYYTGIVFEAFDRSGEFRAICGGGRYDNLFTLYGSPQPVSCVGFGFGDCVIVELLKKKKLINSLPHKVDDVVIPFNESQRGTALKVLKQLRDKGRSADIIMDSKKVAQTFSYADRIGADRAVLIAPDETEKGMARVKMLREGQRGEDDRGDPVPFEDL

Data taken from ChEMBL document CHEMBL3988442, “University of Dundee, Small-Polar-MMV Screening Library” (2021).

CoaBC: 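Coenzyme A biosynthesis protein CoaBC, Mycobacterium tuberculosis (UniProt P9WNZ1). Enzyme assay of CoaBC with a phosphate dye (Biomol Green) read at 650 nm. Concentration: 30 µM. Direction is inferred from only a few compounds that gave an IC50; most scored high, so higher reads as stronger inhibition. Most strong results did not repeat in a second test. About 67,000 compounds were tested under these conditions; 0.06% (about 40) showed 50% or more at least once.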
Toxoplasma: 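Assay of Toxoplasma gondii numbers, read through their beta-galactosidase reporter with a colour substrate. Compounds at 10 µM. Higher reads as fewer parasites (inferred from which compounds were picked for retests). Size under these conditions: about 67,000 compounds, about 260 of them at 50% or above in at least one test.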
Leishmania in macrophages: 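Cell assay of Leishmania donovani living inside macrophages; the read-out is not stated. Compounds at 30 µM. Direction is inferred from retests: higher values go with stronger inhibition. Size under these conditions: about 69,000 compounds, about 1,000 of them at 50% or above in at least one test.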
MtTrpRS: 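Enzyme assay of tryptophanyl-tRNA synthetase; the read-out is not stated. Target: Tryptophan-tRNA ligase, Mycobacterium tuberculosis (UniProt P9WFT3). Concentration: 10 µM. Higher most likely means stronger inhibition; the record gives no direction and few retests gave an IC50. Size under these conditions: about 65,000 compounds, about 64 of them at 50% or above in at least one test.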
LiHisRS: 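Histidine-tRNA ligase, Leishmania infantum (UniProt A4I591). Enzyme assay of histidyl-tRNA synthetase; the read-out is not stated. Compounds at 30 µM. Direction is inferred from retests: higher values go with stronger inhibition. The assay is labelled LdHisRS but filed under L. infantum. About 69,000 compounds were tested under these conditions; 0.6% (about 410) showed 50% or more at least once.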

Results are given as percent effect. The controls that fix the scale are not given in the record; negative values are as filed. The compounds are a random part of those screened. Two or more numbers in one place are separate tests of the same structure; such repeats can differ widely. A dash means the value is not listed here; it may have been measured.

{"compound": "c1nc(N2CCCCC2Cn2cncn2)c2ccsc2n1", "stereo": "centres unmarked", "CoaBC": 3.125, "Toxoplasma": -2.423, "Leishmania in macrophages": 27.01, "MtTrpRS": 3.73, "LiHisRS": 18.45}
{"compound": "O=C(O)C(F)(F)F.[H][C@@]12C[C@@H](C(=O)NC(C)C)C[C@@]1([H])N(Cc1ccc(OC)cc1)CCO2", "Toxoplasma": 6.404, "Leishmania in macrophages": 3.765}
{"compound": "CC1CN(C)CCN1C(=O)c1cnn(-c2cccc(Cl)c2)c1", "stereo": "centres unmarked", "CoaBC": 3.484, "Toxoplasma": -8.505, "Leishmania in macrophages": 18.16, "MtTrpRS": -4.771, "LiHisRS": 5.217}
{"compound": "O=S(=O)(C1CC1)N1CCO[C@@H]2CN(Cc3ccco3)C[C@@H]2C1", "CoaBC": 5.011, "MtTrpRS": -1.549, "LiHisRS": 3.509}
{"compound": "[H][C@@]12COC[C@]1([H])[C@@H](OCCN(C)C)CN2C(=O)c1cscn1", "Toxoplasma": 4.935, "Leishmania in macrophages": 35.11}
{"compound": "CN(Cc1cnn(C)c1)C(=O)NCCc1ccc2c(c1)OCO2", "CoaBC": 5.355, "Toxoplasma": 6.837, "Leishmania in macrophages": 12.26, "MtTrpRS": 1.645, "LiHisRS": 12.84}
{"compound": "[H][C@@]12CCN(CC3CC3)[C@@]1([H])CCN2C(=O)c1ccoc1", "Toxoplasma": -17.57, "Leishmania in macrophages": 11.27}
{"compound": "Cc1cc(NC(=O)N(Cc2ccc(C#N)cc2)C(C)C)no1", "CoaBC": 6.048, "Toxoplasma": -3.842, "Leishmania in macrophages": 10.87, "MtTrpRS": -3.269, "LiHisRS": 12.28}
{"compound": "Cc1cc(NCC(C)C)ccc1C(=O)N(C)C", "CoaBC": -7.559, "Toxoplasma": 3.15, "Leishmania in macrophages": 3.216, "MtTrpRS": -2.351, "LiHisRS": -5.714}
{"compound": "COCc1nn(C(C)C)c2c1CCN(Cc1ccoc1)C2.O=C(O)C(F)(F)F", "Toxoplasma": 2.219, "Leishmania in macrophages": 9.261}
{"compound": "CCOc1ccc(CC(=O)Nc2cnccc2SCCCO)cc1", "CoaBC": 7.78, "Toxoplasma": 2.301, "Leishmania in macrophages": 4.718, "MtTrpRS": -4.686, "LiHisRS": 9.524}
{"compound": "CC(=O)Nc1nc(CN2CCCC2c2cnn(C)c2)cs1", "stereo": "centres unmarked", "CoaBC": -0.7712, "Leishmania in macrophages": 22.59, "MtTrpRS": 0.3934, "LiHisRS": 10.11}
{"compound": "Cc1nc(NCCSc2cnn[nH]2)c2cccnc2n1", "CoaBC": 1.304, "Toxoplasma": -0.1873, "Leishmania in macrophages": -0.8813, "MtTrpRS": 6.455, "LiHisRS": 13.09}
{"compound": "CCCc1cc(C(=O)N2CC(c3ccncc3)C2)ccn1", "CoaBC": 5.371, "Toxoplasma": 25.53, "Leishmania in macrophages": 6.983, "MtTrpRS": 0.1575, "LiHisRS": 18.03}
{"compound": "CCN(CC)C(=O)c1ccc(Cl)c(NC(=O)c2cnc(C)cn2)c1", "CoaBC": -5.432, "Toxoplasma": -4.545, "Leishmania in macrophages": 12.12, "MtTrpRS": 3.759, "LiHisRS": 16.78}
{"compound": "CC(=O)NC[C@]1(O)CCN(C(=O)c2ccc(F)c(Cl)c2)C[C@H]1O", "CoaBC": 0.7282, "Toxoplasma": 1.982, "Leishmania in macrophages": "14.29 and 3.689", "LiHisRS": 13.04}
{"compound": "CCc1c(O)nc2nc(N3CCCC3)nn2c1C", "CoaBC": -0.7009, "Toxoplasma": 6.519, "Leishmania in macrophages": 11.86, "MtTrpRS": -2.3, "LiHisRS": 18.58}
{"compound": "CN(C)c1cc(N2CCN(c3ccccn3)CC2)ncn1", "CoaBC": 4.854, "Toxoplasma": 2.877, "Leishmania in macrophages": -10.02, "LiHisRS": -1.98}
{"compound": "Cc1nnc2n1CCN(CC(=O)NC(C)c1ccc3ccccc3c1)C2", "stereo": "centres unmarked", "CoaBC": 8.413, "Toxoplasma": 1.229, "Leishmania in macrophages": -23.81, "MtTrpRS": 5.708, "LiHisRS": 16.67}
{"compound": "O=C(O)C(F)(F)F.O=C(O)C(F)(F)F.[H][C@@]12C[C@H](C(=O)N3CCCO3)CN(Cc3cccnc3)[C@]1([H])CCO2", "Toxoplasma": -1.452, "Leishmania in macrophages": -10.48}
{"compound": "CCc1ccccc1OCCN1C[C@@H](NS(C)(=O)=O)[C@H](C(C)C)C1", "CoaBC": 9.457, "Toxoplasma": 19.14, "Leishmania in macrophages": -0.5826, "MtTrpRS": -3.631, "LiHisRS": 7.692}
{"compound": "CC(C)CCNC(=O)c1ccc(-n2cnc3ccccc3c2=O)cc1", "CoaBC": 3.544, "Toxoplasma": -2.365, "Leishmania in macrophages": 7.525, "MtTrpRS": 1.022, "LiHisRS": 15.79}

Repeated from the top, 3 entries:

compound	CoaBC	Toxoplasma	Leishmania in macrophages	MtTrpRS	LiHisRS
c1nc(N2CCCCC2Cn2cncn2)c2ccsc2n1 (centres unmarked)	3.125%	-2.423%	27.01%	3.73%	18.45%
O=C(O)C(F)(F)F.[H][C@@]12C[C@@H](C(=O)NC(C)C)C[C@@]1([H])N(Cc1ccc(OC)cc1)CCO2	-	6.404%	3.765%	-	-
CC1CN(C)CCN1C(=O)c1cnn(-c2cccc(Cl)c2)c1 (centres unmarked)	3.484%	-8.505%	18.16%	-4.771%	5.217%